Results on 5 targets are retold here after the supplement of paper PMC12819154, “High-throughput peptide-centric local stability assay extends protein–ligand identification to membrane proteins, tissues and bacteria” (Nature Structural & Molecular Biology, 2025).

By UniProt entry, the sequences of proteins in these tests, tags left out. Where a name states a change or a piece, a line headed by the entry shows the natural chain unless it says otherwise.
UniProt Q8BH79: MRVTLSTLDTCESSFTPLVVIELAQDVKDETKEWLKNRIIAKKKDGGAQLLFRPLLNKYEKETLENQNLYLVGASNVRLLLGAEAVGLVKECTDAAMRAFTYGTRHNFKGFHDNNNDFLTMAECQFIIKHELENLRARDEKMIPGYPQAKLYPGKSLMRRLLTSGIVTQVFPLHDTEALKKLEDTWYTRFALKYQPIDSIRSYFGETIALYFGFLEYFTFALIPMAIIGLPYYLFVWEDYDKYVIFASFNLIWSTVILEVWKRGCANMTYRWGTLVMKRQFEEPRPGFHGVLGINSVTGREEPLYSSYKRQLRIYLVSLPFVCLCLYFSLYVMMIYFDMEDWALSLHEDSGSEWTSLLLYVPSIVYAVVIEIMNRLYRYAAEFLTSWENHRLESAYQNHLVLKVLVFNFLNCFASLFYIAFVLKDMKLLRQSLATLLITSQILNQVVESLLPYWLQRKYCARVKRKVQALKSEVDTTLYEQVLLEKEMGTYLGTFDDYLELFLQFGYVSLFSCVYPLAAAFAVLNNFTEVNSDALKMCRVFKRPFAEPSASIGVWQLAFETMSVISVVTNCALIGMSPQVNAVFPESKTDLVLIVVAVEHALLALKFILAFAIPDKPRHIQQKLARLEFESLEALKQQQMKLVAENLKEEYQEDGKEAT
UniProt Q80WQ6: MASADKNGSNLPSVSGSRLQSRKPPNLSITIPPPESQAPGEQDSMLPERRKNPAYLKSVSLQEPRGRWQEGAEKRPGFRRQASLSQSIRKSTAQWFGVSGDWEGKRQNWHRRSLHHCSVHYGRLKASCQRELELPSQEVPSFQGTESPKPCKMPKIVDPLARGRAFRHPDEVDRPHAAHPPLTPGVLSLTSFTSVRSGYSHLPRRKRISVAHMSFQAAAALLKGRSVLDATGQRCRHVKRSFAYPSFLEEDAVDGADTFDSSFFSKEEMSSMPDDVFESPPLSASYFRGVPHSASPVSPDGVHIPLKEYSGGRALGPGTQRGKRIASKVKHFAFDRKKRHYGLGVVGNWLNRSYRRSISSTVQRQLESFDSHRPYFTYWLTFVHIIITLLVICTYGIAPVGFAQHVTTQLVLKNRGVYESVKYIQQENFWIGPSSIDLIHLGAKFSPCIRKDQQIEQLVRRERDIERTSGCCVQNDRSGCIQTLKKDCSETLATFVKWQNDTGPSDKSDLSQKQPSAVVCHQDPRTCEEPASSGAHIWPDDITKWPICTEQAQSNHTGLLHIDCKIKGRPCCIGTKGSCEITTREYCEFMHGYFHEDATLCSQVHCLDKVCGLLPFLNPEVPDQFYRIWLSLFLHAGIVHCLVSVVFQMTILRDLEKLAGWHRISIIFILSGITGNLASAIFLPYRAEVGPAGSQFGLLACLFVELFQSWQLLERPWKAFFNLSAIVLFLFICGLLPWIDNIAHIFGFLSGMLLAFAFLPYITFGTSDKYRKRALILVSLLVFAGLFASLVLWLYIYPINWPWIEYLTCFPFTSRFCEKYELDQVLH
UniProt Q8BHN1: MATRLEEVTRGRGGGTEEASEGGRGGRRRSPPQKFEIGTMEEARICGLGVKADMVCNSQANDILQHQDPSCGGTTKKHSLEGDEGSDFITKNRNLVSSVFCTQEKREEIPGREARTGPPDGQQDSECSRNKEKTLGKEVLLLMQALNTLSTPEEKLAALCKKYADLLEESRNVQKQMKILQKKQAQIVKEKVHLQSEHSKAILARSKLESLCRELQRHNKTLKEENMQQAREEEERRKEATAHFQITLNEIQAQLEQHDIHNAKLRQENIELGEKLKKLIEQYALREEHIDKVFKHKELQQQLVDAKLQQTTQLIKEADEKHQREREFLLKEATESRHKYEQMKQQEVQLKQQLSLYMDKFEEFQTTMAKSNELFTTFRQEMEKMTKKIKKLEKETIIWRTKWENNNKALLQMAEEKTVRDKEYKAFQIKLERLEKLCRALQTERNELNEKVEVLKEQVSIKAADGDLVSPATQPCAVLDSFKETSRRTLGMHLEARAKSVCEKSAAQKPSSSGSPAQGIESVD
UniProt Q8BGR5: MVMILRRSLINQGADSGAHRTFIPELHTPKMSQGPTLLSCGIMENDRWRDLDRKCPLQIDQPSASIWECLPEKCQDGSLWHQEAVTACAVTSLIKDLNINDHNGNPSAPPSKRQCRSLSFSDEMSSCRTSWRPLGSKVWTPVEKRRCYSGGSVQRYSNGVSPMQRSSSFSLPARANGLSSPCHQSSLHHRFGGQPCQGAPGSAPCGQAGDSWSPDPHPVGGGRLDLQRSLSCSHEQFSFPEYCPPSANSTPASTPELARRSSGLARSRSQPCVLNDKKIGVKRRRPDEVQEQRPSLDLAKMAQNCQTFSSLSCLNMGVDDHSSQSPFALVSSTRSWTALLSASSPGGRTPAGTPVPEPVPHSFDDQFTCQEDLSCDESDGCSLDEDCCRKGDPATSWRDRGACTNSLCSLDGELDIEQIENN
UniProt Q8BH00: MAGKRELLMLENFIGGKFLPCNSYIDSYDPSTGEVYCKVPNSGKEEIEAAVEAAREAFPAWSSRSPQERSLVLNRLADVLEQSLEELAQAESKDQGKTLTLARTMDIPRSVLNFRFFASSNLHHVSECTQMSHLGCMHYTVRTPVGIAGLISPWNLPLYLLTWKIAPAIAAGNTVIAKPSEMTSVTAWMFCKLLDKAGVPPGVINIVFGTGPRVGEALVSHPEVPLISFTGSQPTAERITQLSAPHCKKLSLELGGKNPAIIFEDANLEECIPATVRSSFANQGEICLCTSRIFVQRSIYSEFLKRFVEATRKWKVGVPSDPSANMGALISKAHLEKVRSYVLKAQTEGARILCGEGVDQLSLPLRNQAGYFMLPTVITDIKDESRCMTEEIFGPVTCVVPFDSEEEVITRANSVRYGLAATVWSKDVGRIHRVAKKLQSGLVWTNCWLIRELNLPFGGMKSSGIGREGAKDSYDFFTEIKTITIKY

The other results are listed elsewhere or left out. Small differences around the control level are noise.

Compound in this test: CN[C@@H]1C[C@H]2O[C@@](C)([C@@H]1OC)n1c3ccccc3c3c4c(c5c6ccccc6n2c5c31)C(=O)NC4 [staurosporine]
The test is described as follows: log2 fold change of tryptic peptide abundance, ligand vs vehicle (limited proteolysis) (log2 ratio); higher = more trypsin-susceptible (destabilized). The note with it: ligand concentration: 20 uM; sample: mouse liver crude lysate; replicate design: treated separately.
For “UniProt Q8BH79 (peptide sequence: EEYQEDGKEAT, peptide start residue: 649)”, the log2 fold change was 0.481. As to “UniProt Q80WQ6 (peptide sequence: SLHHCSVHYGR, peptide start residue: 113)”, the log2 fold change was 0.362. For “UniProt Q8BHN1 (peptide sequence: AFQIKLER, peptide start residue: 426)” the value was 0.796. On to “UniProt Q8BGR5 (peptide sequence: ANGLSSPCHQSSLHHR, peptide start residue: 175)”, for which the log2 fold change was 0.328. As for “UniProt Q8BH00 (peptide sequence: EAFPAWSSR, peptide start residue: 56)”, the log2 fold change amounted to 0.112.
